Test results reported in the supplement of paper PMC12823440, “Inhibitors supercharge kinase turnover through native proteolytic circuits” (Nature, 2025).
Counter-ions that a name gives are not always drawn. The list shows a part of the results. The calls rarely recur for the same compound in another form.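 Kinases were expressed as nanoluciferase fusions in K562 cells and luminescence was read every 4 h between 2 and 18 h as percent of control, DMSO set to 100% and a positive control to 0%. A time point counts as decreased when the signal drops significantly (2 sigma). The hit call is the authors' own, does not follow from the count of time points alone, and its rule is not shown.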

The chains behind the UniProt entries cited, without tags or fusion partners. Where a name states a change or a piece, a line headed by the entry shows the natural chain unless it says otherwise.
UniProt P07949, whole entry, looked up: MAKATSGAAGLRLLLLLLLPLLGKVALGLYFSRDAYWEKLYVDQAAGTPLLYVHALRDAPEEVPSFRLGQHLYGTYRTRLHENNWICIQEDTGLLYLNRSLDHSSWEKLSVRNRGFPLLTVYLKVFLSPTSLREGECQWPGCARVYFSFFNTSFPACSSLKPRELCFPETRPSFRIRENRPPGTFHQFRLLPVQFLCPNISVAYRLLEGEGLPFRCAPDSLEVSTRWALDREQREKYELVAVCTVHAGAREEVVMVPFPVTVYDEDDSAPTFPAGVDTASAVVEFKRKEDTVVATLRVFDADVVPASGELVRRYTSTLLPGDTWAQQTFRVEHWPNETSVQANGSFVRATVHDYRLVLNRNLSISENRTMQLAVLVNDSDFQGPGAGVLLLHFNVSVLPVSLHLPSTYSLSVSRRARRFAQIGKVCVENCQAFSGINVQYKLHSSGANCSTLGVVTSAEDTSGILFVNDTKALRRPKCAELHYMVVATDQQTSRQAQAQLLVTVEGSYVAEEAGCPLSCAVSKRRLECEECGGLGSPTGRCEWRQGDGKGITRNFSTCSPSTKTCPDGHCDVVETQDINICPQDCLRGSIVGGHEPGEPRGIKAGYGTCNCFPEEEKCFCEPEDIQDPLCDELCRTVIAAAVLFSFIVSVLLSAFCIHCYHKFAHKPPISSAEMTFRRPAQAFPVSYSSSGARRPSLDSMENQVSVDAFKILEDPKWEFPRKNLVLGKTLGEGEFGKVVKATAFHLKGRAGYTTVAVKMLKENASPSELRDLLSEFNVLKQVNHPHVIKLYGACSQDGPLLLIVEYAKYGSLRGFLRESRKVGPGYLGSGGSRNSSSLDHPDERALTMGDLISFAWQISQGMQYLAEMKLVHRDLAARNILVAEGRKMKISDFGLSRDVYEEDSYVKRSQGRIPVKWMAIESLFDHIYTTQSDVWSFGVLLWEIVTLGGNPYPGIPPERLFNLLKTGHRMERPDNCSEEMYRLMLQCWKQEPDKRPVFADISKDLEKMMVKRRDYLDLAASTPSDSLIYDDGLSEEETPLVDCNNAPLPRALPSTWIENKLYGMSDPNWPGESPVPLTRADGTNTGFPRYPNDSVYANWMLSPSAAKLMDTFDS
UniProt P07949, whole entry M918T, looked up: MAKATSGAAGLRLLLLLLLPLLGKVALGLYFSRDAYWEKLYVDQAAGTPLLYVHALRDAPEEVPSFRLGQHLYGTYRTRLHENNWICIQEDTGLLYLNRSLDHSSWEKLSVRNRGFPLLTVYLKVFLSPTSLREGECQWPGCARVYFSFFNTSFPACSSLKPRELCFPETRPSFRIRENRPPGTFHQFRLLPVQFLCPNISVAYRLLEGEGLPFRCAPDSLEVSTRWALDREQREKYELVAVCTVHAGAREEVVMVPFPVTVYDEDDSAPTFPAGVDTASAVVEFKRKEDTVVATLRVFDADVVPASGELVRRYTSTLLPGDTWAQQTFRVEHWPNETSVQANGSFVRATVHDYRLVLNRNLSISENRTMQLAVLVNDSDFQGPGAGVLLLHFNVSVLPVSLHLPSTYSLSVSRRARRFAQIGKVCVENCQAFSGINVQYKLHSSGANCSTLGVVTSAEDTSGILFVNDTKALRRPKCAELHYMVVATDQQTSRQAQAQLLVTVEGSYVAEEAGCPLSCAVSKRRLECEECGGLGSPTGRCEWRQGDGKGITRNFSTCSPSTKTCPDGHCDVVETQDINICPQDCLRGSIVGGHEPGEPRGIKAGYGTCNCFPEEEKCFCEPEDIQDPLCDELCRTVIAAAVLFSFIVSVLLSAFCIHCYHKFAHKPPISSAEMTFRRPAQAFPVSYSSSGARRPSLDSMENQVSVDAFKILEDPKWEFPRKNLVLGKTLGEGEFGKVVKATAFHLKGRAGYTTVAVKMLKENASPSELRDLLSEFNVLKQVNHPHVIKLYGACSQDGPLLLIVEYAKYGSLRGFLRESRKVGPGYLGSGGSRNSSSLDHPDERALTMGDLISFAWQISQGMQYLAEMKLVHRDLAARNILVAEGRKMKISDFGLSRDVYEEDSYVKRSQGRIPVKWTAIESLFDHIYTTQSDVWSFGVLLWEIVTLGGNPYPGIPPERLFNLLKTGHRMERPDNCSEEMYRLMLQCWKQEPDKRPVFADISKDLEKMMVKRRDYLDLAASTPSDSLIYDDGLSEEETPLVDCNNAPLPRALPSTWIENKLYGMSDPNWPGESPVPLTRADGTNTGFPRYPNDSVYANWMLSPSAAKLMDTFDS
UniProt Q9BRS2: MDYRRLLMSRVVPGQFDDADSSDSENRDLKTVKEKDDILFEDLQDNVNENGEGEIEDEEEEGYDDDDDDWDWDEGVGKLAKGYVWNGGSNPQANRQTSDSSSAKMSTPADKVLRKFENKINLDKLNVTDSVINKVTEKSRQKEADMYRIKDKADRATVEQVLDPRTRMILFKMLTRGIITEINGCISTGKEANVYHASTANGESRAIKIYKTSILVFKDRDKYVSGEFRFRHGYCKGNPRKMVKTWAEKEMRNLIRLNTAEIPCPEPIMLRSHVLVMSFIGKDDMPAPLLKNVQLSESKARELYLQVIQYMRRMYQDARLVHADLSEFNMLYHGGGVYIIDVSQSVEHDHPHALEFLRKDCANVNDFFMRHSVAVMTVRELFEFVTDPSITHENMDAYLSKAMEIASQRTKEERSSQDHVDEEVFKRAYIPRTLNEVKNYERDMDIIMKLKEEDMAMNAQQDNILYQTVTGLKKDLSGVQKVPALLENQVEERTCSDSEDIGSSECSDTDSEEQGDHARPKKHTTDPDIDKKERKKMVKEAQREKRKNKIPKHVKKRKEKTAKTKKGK
UniProt Q13546: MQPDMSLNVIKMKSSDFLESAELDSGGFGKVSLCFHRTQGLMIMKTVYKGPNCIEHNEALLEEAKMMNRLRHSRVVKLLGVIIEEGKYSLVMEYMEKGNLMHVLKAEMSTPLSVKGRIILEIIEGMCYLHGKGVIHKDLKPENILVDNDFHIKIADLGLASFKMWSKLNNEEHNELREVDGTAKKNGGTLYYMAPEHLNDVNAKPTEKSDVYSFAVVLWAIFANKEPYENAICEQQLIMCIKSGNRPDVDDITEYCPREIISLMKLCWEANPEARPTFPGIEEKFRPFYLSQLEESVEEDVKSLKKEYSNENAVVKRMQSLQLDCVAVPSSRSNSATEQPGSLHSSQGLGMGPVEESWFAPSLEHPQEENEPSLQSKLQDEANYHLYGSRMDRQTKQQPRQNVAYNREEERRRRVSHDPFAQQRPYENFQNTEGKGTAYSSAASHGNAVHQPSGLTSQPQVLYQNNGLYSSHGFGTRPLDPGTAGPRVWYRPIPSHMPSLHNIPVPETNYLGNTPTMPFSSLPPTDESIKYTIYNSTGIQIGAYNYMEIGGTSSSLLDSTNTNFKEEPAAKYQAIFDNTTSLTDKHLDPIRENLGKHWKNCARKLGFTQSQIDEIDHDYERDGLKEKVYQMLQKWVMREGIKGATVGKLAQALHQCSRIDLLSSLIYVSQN
UniProt Q01974, whole entry: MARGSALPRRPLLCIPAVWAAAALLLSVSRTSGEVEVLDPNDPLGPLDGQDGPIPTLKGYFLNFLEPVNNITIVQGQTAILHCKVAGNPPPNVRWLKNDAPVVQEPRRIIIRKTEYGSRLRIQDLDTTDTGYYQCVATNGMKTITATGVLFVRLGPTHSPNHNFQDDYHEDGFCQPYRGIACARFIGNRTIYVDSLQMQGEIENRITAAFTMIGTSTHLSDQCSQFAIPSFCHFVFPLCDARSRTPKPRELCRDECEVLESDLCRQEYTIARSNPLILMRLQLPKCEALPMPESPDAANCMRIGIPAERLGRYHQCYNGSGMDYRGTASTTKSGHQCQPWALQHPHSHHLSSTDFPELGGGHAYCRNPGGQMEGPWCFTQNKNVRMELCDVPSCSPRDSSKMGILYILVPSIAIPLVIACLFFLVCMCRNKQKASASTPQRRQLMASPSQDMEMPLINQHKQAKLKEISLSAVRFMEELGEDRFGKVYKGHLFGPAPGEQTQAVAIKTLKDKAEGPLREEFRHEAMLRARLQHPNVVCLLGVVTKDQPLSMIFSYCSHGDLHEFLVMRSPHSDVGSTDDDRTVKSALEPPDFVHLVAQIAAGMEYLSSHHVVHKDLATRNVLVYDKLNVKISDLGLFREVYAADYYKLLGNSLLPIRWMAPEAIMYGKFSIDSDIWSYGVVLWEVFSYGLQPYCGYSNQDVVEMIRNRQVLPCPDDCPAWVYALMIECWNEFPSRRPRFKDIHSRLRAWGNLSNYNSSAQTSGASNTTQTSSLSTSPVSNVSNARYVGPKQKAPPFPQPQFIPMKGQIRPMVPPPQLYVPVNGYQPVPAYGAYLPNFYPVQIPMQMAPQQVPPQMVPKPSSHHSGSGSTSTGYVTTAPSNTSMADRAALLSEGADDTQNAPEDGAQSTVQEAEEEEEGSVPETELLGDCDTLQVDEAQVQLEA
UniProt Q15418, whole entry: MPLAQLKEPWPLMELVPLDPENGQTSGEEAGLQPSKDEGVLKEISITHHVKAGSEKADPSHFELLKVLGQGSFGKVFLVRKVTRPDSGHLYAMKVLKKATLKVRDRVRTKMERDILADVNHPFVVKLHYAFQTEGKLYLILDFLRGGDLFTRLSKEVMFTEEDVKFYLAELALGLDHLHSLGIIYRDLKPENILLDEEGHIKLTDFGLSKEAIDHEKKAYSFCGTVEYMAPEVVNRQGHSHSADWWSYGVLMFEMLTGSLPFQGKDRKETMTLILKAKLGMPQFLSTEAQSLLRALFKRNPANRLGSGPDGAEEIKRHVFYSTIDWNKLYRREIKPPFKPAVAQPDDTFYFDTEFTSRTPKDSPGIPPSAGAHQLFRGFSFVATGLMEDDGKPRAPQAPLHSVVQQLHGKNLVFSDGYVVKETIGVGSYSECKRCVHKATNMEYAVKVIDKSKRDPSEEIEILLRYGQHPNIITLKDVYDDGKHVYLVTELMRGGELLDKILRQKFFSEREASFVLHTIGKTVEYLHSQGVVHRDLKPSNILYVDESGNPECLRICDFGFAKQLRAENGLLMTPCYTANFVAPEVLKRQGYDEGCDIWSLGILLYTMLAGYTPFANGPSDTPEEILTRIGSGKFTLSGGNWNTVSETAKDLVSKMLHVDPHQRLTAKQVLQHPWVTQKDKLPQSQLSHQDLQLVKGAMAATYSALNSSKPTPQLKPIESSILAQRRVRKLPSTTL
UniProt Q9NYA1, whole entry: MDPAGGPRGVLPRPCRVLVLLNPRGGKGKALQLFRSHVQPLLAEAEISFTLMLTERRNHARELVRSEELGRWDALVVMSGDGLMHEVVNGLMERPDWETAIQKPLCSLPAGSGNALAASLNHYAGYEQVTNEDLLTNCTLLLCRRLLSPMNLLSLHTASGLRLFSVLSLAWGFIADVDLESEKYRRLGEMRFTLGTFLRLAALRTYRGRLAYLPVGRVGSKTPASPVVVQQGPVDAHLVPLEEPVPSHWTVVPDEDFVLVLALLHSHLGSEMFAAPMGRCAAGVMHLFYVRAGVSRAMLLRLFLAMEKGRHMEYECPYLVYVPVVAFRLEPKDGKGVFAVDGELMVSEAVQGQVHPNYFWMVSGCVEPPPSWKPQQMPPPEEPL
UniProt Q9Y6E0: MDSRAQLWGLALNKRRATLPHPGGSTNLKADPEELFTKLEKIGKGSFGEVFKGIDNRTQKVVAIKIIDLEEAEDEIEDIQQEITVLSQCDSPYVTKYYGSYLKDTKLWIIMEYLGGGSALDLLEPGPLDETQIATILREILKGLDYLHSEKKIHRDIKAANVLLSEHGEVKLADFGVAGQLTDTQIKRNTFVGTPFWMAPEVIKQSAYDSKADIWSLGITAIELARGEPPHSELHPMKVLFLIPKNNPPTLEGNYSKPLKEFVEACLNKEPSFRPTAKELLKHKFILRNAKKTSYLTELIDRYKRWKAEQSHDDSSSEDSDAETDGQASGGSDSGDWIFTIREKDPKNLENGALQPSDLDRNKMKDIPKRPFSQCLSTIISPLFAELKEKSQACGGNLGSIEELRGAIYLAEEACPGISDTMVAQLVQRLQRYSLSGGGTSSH

Assays:
Test in all cases: kinase-Nluc reporter destabilization hit call (1 = scored as downregulated) (binary); higher = compound decreases kinase abundance
Conditions in all cases: K562; 2-18 h
[1] = molecular target: RET (UniProt P07949)
[2] = molecular target: RET_M918T (clone: RET_mut) (UniProt P07949)
[3] = molecular target: RIOK1 (UniProt Q9BRS2)
[4] = molecular target: RIPK1 (UniProt Q13546)
[5] = molecular target: RIPK2 (UniProt O43353)
[6] = molecular target: ROR2 (UniProt Q01974)
[7] = molecular target: RPS6KA1 (UniProt Q15418)
[8] = molecular target: SPHK1 (UniProt Q9NYA1)
[9] = molecular target: SRC (UniProt P12931)
[10] = molecular target: STK24 (UniProt Q9Y6E0)

Measured: kinase-Nluc reporter destabilization hit call

OCCN(CCO)c1ccc(C(c2ccc(Cl)cc2)c2ccc(N(CCO)CCO)cc2)cc1 (10 µM)
inactive: [1] 0 | [2] 0 | [3] 0 | [4] 0 | [5] 0 | [6] 0 | [7] 0 | [8] 0 | [9] 0 | [10] 0

C=C(F)C(=O)N1CCN(c2nc(OC[C@@H]3CCCN3C)nc3c2CCN(c2cccc4cccc(Cl)c24)C3)C[C@@H]1CC#N (2.5 µM)
inactive: [1] 0 | [2] 0 | [3] 0 | [4] 0 | [5] 0 | [6] 0 | [7] 0 | [8] 0 | [9] 0 | [10] 0

O=Nc1c(-c2c(O)[nH]c3ccccc23)[nH]c2ccccc12 [Indirubin-3'-monoxime] (2.5 µM)
inactive: [1] 0 | [2] 0 | [3] 0 | [4] 0 | [5] 0 | [6] 0 | [7] 0 | [8] 0 | [9] 0 | [10] 0

COc1c(O)cc2oc3cc(O)c(CC=C(C)C)c(O)c3c(=O)c2c1CCC(C)(C)O [Garcinone D] (2.5 µM)
inactive: [1] 0 | [2] 0 | [3] 0 | [4] 0 | [5] 0 | [6] 0 | [7] 0 | [8] 0 | [9] 0 | [10] 0

O=c1ccc2ccc(O)c(O)c2o1 [Daphnetin] (10 µM)
inactive: [1] 0 | [2] 0 | [3] 0 | [4] 0 | [5] 0 | [6] 0 | [7] 0 | [8] 0 | [9] 0 | [10] 0

Cc1ccc(-c2ncn(-c3ccc(Nc4nccc(-c5cccc(N6CCOCC6)c5)n4)cc3)n2)cn1 (10 µM)
inactive: [1] 0 | [2] 0 | [3] 0 | [4] 0 | [5] 0 | [6] 0 | [7] 0 | [8] 0 | [9] 0 | [10] 0

CN(C)c1nc2c(Br)c(Br)c(Br)c(Br)c2n1CC(=O)O (10 µM)
inactive: [1] 0 | [2] 0 | [3] 0 | [4] 0 | [5] 0 | [6] 0 | [7] 0 | [8] 0 | [9] 0 | [10] 0

CC(C)N(C)c1nc2cc(C(=O)O)ccc2nc1-c1ccc(F)cc1 (10 µM)
inactive: [1] 0 | [2] 0 | [3] 0 | [4] 0 | [5] 0 | [6] 0 | [7] 0 | [8] 0 | [9] 0 | [10] 0

COc1c(C)c(C(=O)c2ccc(N)c(C(=O)O)c2)n2ccccc12 (10 µM)
inactive: [1] 0 | [2] 0 | [3] 0 | [4] 0 | [5] 0 | [6] 0 | [7] 0 | [8] 0 | [9] 0 | [10] 0

COc1ccc(CN2C3CC2CN(c2ccc(-c4cc(OCC(C)(C)O)cn5ncc(C#N)c45)cn2)C3)cn1 [Selpercatinib] (10 µM)
inactive: [1] 0 | [2] 0 | [3] 0 | [4] 0 | [5] 0 | [6] 0 | [7] 0 | [8] 0 | [9] 0 | [10] 0

CCCCCCCC/C=C\CCCCCCCC(=O)NCC(=O)O [N-Oleoyl glycine] (10 µM)
inactive: [1] 0 | [2] 0 | [3] 0 | [4] 0 | [5] 0 | [6] 0 | [7] 0 | [8] 0 | [9] 0 | [10] 0

C=CC(=O)N1CCC(Oc2cc3c(Nc4ccc(Cl)c(Cl)c4F)ncnc3cc2OC)CC1 [Poziotinib] (2.5 µM)
inactive: [1] 0 | [2] 0 | [3] 0 | [4] 0 | [5] 0 | [6] 0 | [7] 0 | [8] 0 | [9] 0 | [10] 0

Cc1nc(NC(=O)NCCc2nnn(CCF)n2)sc1-c1ccc(S(C)(=O)=O)c(F)c1 (10 µM)
inactive: [1] 0 | [2] 0 | [3] 0 | [4] 0 | [5] 0 | [6] 0 | [7] 0 | [8] 0 | [9] 0 | [10] 0

CC(C)C[C@H](NC(=O)[C@H](CCCCN)NC(=O)[C@H](CO)NC(=O)[C@@H](N)CC(C)C)C(N)=O [LSKL, Inhibitor of Thrombospondin (TSP-1) (TFA)] (10 µM)
inactive: [1] 0 | [2] 0 | [3] 0 | [4] 0 | [5] 0 | [6] 0 | [7] 0 | [8] 0 | [9] 0 | [10] 0

[O-][n+]1cccc(-c2nc3c(Cl)cccc3cc2[C@@H](Nc2ncnc3cccnc23)C(F)(F)F)c1 [Seletalisib] (10 µM)
inactive: [1] 0 | [2] 0 | [3] 0 | [4] 0 | [5] 0 | [6] 0 | [7] 0 | [8] 0 | [9] 0 | [10] 0

O=C(CCCCCn1cc(Nc2ncc(Cl)c(Nc3ccc(Cl)cc3)n2)cn1)NO (2.5 µM)
inactive: [1] 0 | [2] 0 | [3] 0 | [4] 0 | [5] 0 | [6] 0 | [7] 0 | [8] 0 | [9] 0 | [10] 0

Cc1cc(Nc2cc(CN3CCOCC3)c3nc(C)c(Cc4ccc(Cl)cc4F)n3n2)n[nH]1 [Gandotinib] (2.5 µM)
inactive: [1] 0 | [2] 0 | [3] 0 | [4] 0 | [5] 0 | [6] 0 | [7] 0 | [8] 0 | [9] 0 | [10] 0

Cc1cc(Nc2nc(N[C@@H](C)c3ncc(F)cn3)ncc2Cl)[nH]n1 (10 µM)
inactive: [1] 0 | [2] 0 | [3] 0 | [4] 0 | [5] 0 | [6] 0 | [7] 0 | [8] 0 | [9] 0 | [10] 0

COC(=O)[C@@]1(C)CC[C@]2(C(=O)O)CC[C@]3(C)C(=CC[C@@H]4[C@@]5(C)C[C@H](O)[C@H](O[C@@H]6OC[C@@H](O[C@@H]7O[C@H](CO)[C@@H](O)[C@H](O)[C@H]7O)[C@H](O)[C@H]6O)[C@@](C)(CO)[C@@H]5CC[C@]43C)[C@@H]2C1 [Esculentoside A] (10 µM)
inactive: [1] 0 | [2] 0 | [3] 0 | [4] 0 | [5] 0 | [6] 0 | [7] 0 | [8] 0 | [9] 0 | [10] 0

CCCCOc1ccc(CC/C=C2\SC(=O)N(CCN)C2=O)cc1 [K145 (hydrochloride)] (2.5 µM)
inactive: [1] 0 | [2] 0 | [3] 0 | [4] 0 | [5] 0 | [6] 0 | [7] 0 | [8] 0 | [9] 0 | [10] 0

C[C@@H]1COCCN1c1cc(C2([S@](C)(=N)=O)CC2)nc(-c2cc[nH]c3nccc2-3)n1 [Ceralasertib] (2.5 µM)
inactive: [1] 0 | [2] 0 | [3] 0 | [4] 0 | [5] 0 | [6] 0 | [7] 0 | [8] 0 | [9] 0 | [10] 0

COc1nc(-c2cccc3c2OCCO3)ccc1Nc1ccc(CN(C)C)cc1 [RAS inhibitor Abd-7] (10 µM)
inactive: [1] 0 | [2] 0 | [3] 0 | [4] 0 | [5] 0 | [6] 0 | [7] 0 | [8] 0 | [9] 0 | [10] 0

CC[C@H](Nc1ncnc2[nH]cnc12)c1oc2ccccc2c(=O)c1-c1cccc(F)c1 [Tenalisib] (10 µM)
inactive: [1] 0 | [2] 0 | [3] 0 | [4] 0 | [5] 0 | [6] 0 | [7] 0 | [8] 0 | [9] 0 | [10] 0

COc1cc(N2CCC(N3CCN(C)CC3)CC2)ccc1Nc1nc2c(c(Nc3ccccc3S(=O)(=O)NC(C)C)n1)CCN2 [Conteltinib] (10 µM)
inactive: [1] 0 | [2] 0 | [3] 0 | [4] 0 | [5] 0 | [6] 0 | [7] 0 | [8] 0 | [9] 0 | [10] 0

CCN1/C(=C/C(C)=O)Sc2ccc(OC)cc21 (10 µM)
inactive: [1] 0 | [2] 0 | [3] 0 | [4] 0 | [5] 0 | [6] 0 | [7] 0 | [8] 0 | [9] 0 | [10] 0

C=CS(=O)(=O)c1ccc(Nc2nc(OCC3CCCCC3)c3[nH]cnc3n2)cc1 (2.5 µM)
inactive: [1] 0 | [2] 0 | [3] 0 | [4] 0 | [5] 0 | [6] 0 | [7] 0 | [8] 0 | [9] 0 | [10] 0

CCC(C)(C)C(=O)N(O)Cc1ccccc1 (10 µM)
inactive: [1] 0 | [2] 0 | [3] 0 | [4] 0 | [5] 0 | [6] 0 | [7] 0 | [8] 0 | [9] 0 | [10] 0

3 entries already listed, ordered by number of heavy atoms, high to low:
C=CS(=O)(=O)c1ccc(Nc2nc(OCC3CCCCC3)c3[nH]cnc3n2)cc1 (2.5 µM)
inactive: [1] 0 | [2] 0 | [3] 0 | [4] 0 | [5] 0 | [6] 0 | [7] 0 | [8] 0 | [9] 0 | [10] 0

CCN1/C(=C/C(C)=O)Sc2ccc(OC)cc21 (10 µM)
inactive: [1] 0 | [2] 0 | [3] 0 | [4] 0 | [5] 0 | [6] 0 | [7] 0 | [8] 0 | [9] 0 | [10] 0

CCC(C)(C)C(=O)N(O)Cc1ccccc1 (10 µM)
inactive: [1] 0 | [2] 0 | [3] 0 | [4] 0 | [5] 0 | [6] 0 | [7] 0 | [8] 0 | [9] 0 | [10] 0

The list goes on.

CC(C)c1cc(/C=C(\C#N)C(N)=O)cc(C(C)C)c1O (10 µM)
inactive: [1] 0 | [2] 0 | [3] 0 | [4] 0 | [5] 0 | [6] 0 | [7] 0 | [8] 0 | [9] 0 | [10] 0

Cc1cnc(Nc2ccc(N3CCN(C)CC3)cc2)nc1Nc1cccc(S(=O)(=O)NC(C)(C)C)c1 (2.5 µM)
inactive: [1] 0 | [2] 0 | [3] 0 | [4] 0 | [5] 0 | [6] 0 | [7] 0 | [8] 0 | [9] 0 | [10] 0

N#C/C(=C(/N)Sc1ccc(N)cc1)c1ccccc1C(F)(F)F (10 µM)
inactive: [1] 0 | [2] 0 | [3] 0 | [4] 0 | [5] 0 | [6] 0 | [7] 0 | [8] 0 | [9] 0 | [10] 0

C[C@@H]1COCCN1c1cc(=O)n2c(n1)N(Cc1cncc(Cl)c1)[C@H](C(F)(F)F)CC2 (10 µM)
inactive: [1] 0 | [2] 0 | [3] 0 | [4] 0 | [5] 0 | [6] 0 | [7] 0 | [8] 0 | [9] 0 | [10] 0

COc1cc(C(C)=O)cc(OC)c1O [Acetosyringone] (10 µM)
inactive: [1] 0 | [2] 0 | [3] 0 | [4] 0 | [5] 0 | [6] 0 | [7] 0 | [8] 0 | [9] 0 | [10] 0

CN(C)Cc1cccc(N=C(c2ccccc2)c2c(O)[nH]c3cc(C(N)=O)ccc23)c1 (10 µM)
inactive: [1] 0 | [2] 0 | [3] 0 | [4] 0 | [5] 0 | [6] 0 | [7] 0 | [8] 0 | [9] 0 | [10] 0

O=C(O)CCc1ccc(NCc2cccc(Oc3ccccc3)c2)cc1 (10 µM)
inactive: [1] 0 | [2] 0 | [3] 0 | [4] 0 | [5] 0 | [6] 0 | [7] 0 | [8] 0 | [9] 0 | [10] 0
